# The whole screen tested about 580,000 compounds, of which about 6,100 (1.1%) were called active. The inconclusive results got no clear call from the source; some entries with a clear call stand among them for comparison. The call rests on the fitted dose curve; in most records, active means well fitted inhibition curve with a large enough effect; inconclusive means small, poorly fitted or top-dose-only effect, or another doubt; inactive means no such curve, though single readings can be large or run the other way. Potencies of inconclusive entries are doubtful fits and often do not repeat.
# Sequences of proteins named here, by UniProt entry; tags and fusion partners are left off. A change or cut given only in a name is not applied to a line headed by its entry.
# UniProt P18054: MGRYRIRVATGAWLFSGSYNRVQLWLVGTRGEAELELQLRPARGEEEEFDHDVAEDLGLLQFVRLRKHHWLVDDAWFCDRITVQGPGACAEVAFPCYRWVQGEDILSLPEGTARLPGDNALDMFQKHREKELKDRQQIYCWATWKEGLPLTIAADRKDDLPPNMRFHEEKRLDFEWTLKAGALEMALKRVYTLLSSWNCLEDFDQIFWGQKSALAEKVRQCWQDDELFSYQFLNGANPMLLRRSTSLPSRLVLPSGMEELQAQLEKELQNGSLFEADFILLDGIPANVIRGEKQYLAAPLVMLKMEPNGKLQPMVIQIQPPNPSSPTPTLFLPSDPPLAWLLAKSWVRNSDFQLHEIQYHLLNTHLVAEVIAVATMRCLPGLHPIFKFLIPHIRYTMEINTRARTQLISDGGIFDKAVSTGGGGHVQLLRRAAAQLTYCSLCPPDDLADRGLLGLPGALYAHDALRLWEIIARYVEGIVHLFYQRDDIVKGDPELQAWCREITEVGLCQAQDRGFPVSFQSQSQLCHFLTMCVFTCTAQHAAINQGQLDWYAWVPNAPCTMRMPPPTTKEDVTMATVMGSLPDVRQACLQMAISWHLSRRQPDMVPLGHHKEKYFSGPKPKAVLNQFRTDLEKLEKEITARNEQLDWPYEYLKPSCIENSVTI
# Biological target: Polyunsaturated fatty acid lipoxygenase ALOX12 (Homo sapiens) (UniProt P18054)
# Experiment: Primary qHTS assay for inhibitors of human arachidonate 12S-lipoxygenase (ALOX12): Round 2
# Conditions: purified 12hLO, xylenol orange hydroperoxide absorbance; activity change, negative = inhibition: at 108 µM (top of the series) unless noted
# Procedure, shortened: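 Purified human 12hLO at 150 nM in 25 mM Hepes, 0.01% Triton X-100, pH 7.0, preincubated 15 min at room temperature with compound. Reaction started with 40 uM arachidonic acid, 30 min at room temperature. Hydroperoxide measured by Fe-xylenol orange, 573/405 nm absorbance ratio.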
# On the % scale 0 is the no-effect control and ±100 the full control effect; potency means the concentration at half of the fitted maximal effect.
SMILES,Potency,"activity change, negative = inhibition"
CC(C)c1nc2c(c(-c3ccc(O)cc3)n1)CN(Cc1ccsc1)CC2,"inconclusive: 35.5 µM [inhibitor, partial curve, poor fit]",–
O=C(OCC(=O)c1cccs1)c1ccc(NC(=O)c2ccco2)cc1,"inconclusive: 0.0794 µM [inhibitor, full curve, poor fit]",–
CC(C)CCN1CCNC(=O)C1CC(=O)N(Cc1nccs1)C1CC1 (stereo unspecified),inactive,–
COc1ccc2c(c1)CC/C2=N\OC(=O)c1cc(Cl)ccc1OC,inactive,–
Cc1ccccc1OCC(=O)Nc1cc2c(cc1S(=O)(=O)c1ccc(F)cc1)n(C)c(=O)n2C,inactive,–
CCN(CC)CCN1C(=O)C(=O)/C(=C(/O)c2c(C)[nH]c(C(=O)OC)c2C)C1c1cccnc1 (stereo unspecified),inactive,–
Cc1cccc(C(=O)Nc2ccc(NC(=O)c3ccco3)cc2O)c1,"inconclusive: 39.8 µM [inhibitor, full curve, poor fit]",–
COc1ccccc1NS(=O)(=O)c1ccc(C(=O)NCC(c2cccs2)N2CCOCC2)cc1 (stereo unspecified),"inconclusive: 112 µM [inhibitor, single point]",–
CCCC(C)c1nnc(NC(=O)C2CCCO2)s1 (stereo unspecified),"inconclusive: 39.8 µM [inhibitor, partial curve, poor fit]",–
Cn1cc(-c2cc(C(F)F)c3c(C4CC4)nn(CC(=O)O)c3n2)cn1,"inconclusive: 39.8 µM [inhibitor, partial curve, poor fit]",–
Cc1cccc(Oc2sc(C(=O)c3ccccc3)c(N)c2C#N)c1,"inconclusive: 3.16 µM [inhibitor, full curve, poor fit]",–
COc1ccc(/C=N/NC(=O)CNS(=O)(=O)c2ccc(C)cc2)cc1,"inconclusive: 35.5 µM [inhibitor, partial curve, poor fit]",–
COC(=O)C(NC(=O)CCc1c(C)nc2cc(-c3cccc(F)c3)nn2c1C)C(C)C (stereo unspecified),inactive,–
CC(C)NC(=O)c1cc(-c2ccco2)nn1-c1ccc(Cl)cc1,"inconclusive: 15.8 µM [inhibitor, partial curve, poor fit]",–
CSC(SC)=C1C(=O)OC(C)(C)OC1=O,"inconclusive: 22.4 µM [inhibitor, partial curve, poor fit]",–
S=c1[nH]nc(COc2ccccc2)n1/N=C/c1cccc(Br)c1,active: 31.6 µM,–
CCOC(=O)CSc1cc(CSc2ccccc2)nc(-c2ccccc2)n1,"inconclusive: 17.8 µM [inhibitor, partial curve, poor fit]",–
COCCCNCc1cccc2ccccc12,inactive,–
Clc1ccc(/C=N/Nc2ccccn2)cc1,inactive,–
COCCN(C(=O)COC(=O)Cc1cccc(OC)c1)c1c(N)n(Cc2ccccc2)c(=O)[nH]c1=O,"inconclusive: 31.6 µM [inhibitor, single point]",–
C[n+]1c2n(c3ccccc31)N=C(c1ccc(Br)cc1)CS2,"inconclusive: 44.7 µM [inhibitor, partial curve, poor fit]",–
Cc1ccc(CNCc2ccc(-c3cccc(C(=O)O)c3)o2)cc1,"inconclusive: 56.2 µM [inhibitor, single point]",–

SMILES,Potency,"activity change, negative = inhibition"
COc1ccc(C=NNC(=S)Nc2ccc(F)cc2)cc1OC,"inconclusive: 50.1 µM [inhibitor, partial curve, poor fit]",–
O=C(CCCc1ccccc1)N1CC2CC(C1)[C@H]1CCCC(=O)N1C2 (stereo partly specified),"inconclusive: 11.2 µM [inhibitor, partial curve, poor fit]",–
CC1CCCC(C)N1NC(=S)NCc1ccccc1 (stereo unspecified),"inconclusive: 25.1 µM [inhibitor, partial curve, poor fit]",–
CCOc1cc(/C=C2/NC(=O)N(CC(=O)Nc3cccc(C)c3)C2=O)ccc1OC,"inconclusive: 100 µM [inhibitor, single point]",–
CCC(C)n1c(=N)c(C(=O)NC2CCCC2)cc2c(=O)n3ccccc3nc21 (stereo unspecified),"inconclusive: 56.2 µM [inhibitor, partial curve, poor fit]",–
COC(=O)C1CN(Cc2cn(CCC3OCCO3)nn2)CCS(=O)(=O)N1Cc1ccc(C)cc1 (stereo unspecified),"inconclusive: 11.2 µM [inhibitor, full curve, poor fit]",–
C#CCOCCOCCOCCNc1nc(N2CCN(C(=O)[C@H](CCCCN)n3cc([C@@H](N)C(C)CC)nn3)CC2)nc(N2CCN(C(=O)[C@H](Cc3ccc(O)cc3)n3cc([C@@H](N)CC(C)C)nn3)CC2)n1 (stereo partly specified),inactive,–
O=C(/C=C/c1ccccc1Cl)Nc1ccccc1-c1ccccc1,"inconclusive: 35.5 µM [inhibitor, partial curve, poor fit]",–
COc1ccc(CNC(=O)COC(=O)c2ccc3ncsc3c2)cc1OC,"inconclusive: 31.6 µM [inhibitor, partial curve, poor fit]",–
Cc1oc(-c2ccccc2)nc1CC(=O)N(CCC#N)Cc1ccco1,inactive,–
Cc1ccc(-c2cc(C(=O)N3CCCCCC3)c3ccccc3n2)o1,"inconclusive: 8.91 µM [inhibitor, full curve, poor fit]",–
COc1ccc(-n2ccnc(NCc3cccs3)c2=O)cc1,"inconclusive: 50.1 µM [inhibitor, partial curve]",–
CCOc1ccc2c(c1)c(=O)c(C(=O)c1ccc3c(c1)OCO3)cn2Cc1cccc(F)c1,"inconclusive: 89.1 µM [inhibitor, partial curve, poor fit]",–
CCn1c(-c2csc3c2CCCC3)n[nH]c1=S,"inconclusive: 44.7 µM [inhibitor, partial curve, poor fit]",–
Cc1ccc(C(=O)N2CCC(N3C(=O)CCC3C(=O)NC(C)C)CC2)c(C)c1 (stereo unspecified),inactive,–
Cc1cccc(NC(=O)CCc2nc3sc4c(c3c(=O)[nH]2)CCCC4)n1,"inconclusive: 50.1 µM [inhibitor, partial curve, poor fit]",–
CCc1cccc(NC(=O)Cn2c(-c3ccccc3)nc(C)c(CCO)c2=O)c1,"inconclusive: 44.7 µM [inhibitor, partial curve, poor fit]",–
c1ccc(CNc2ncncc2-c2cccnc2)cc1,active: 39.8 µM,–
COC(=O)Nc1nc2ccc(C(=O)c3ccccc3)cc2[nH]1,"inconclusive: 0.968 µM [inhibitor, full curve, poor fit]",–
COc1ccc(-c2ocnc2C(=O)Nc2ccccc2N2CCCCC2)cc1,inactive,–
O=C(O)c1ccccc1CSc1nc2ccccc2n1Cc1ccccc1C(=O)O,"inconclusive: 44.7 µM [inhibitor, partial curve]",–
O=C(O)c1ccccc1NS(=O)(=O)c1ccc(N/N=C/c2ccc(O)c(O)c2)c([N+](=O)[O-])c1,"inconclusive: 3.55 µM [inhibitor, full curve, poor fit]",–

# Entries of single compounds, looked up by structure:
# COc1ccc(/C=N/NC(=O)CNS(=O)(=O)c2ccc(C)cc2)cc1 is entered as Potency: inconclusive: 35.5 µM [inhibitor, partial curve, poor fit]
# COc1ccc(CNC(=O)COC(=O)c2ccc3ncsc3c2)cc1OC is entered as Potency: inconclusive: 31.6 µM [inhibitor, partial curve, poor fit]
# CCCC(C)c1nnc(NC(=O)C2CCCO2)s1 (stereo unspecified) is entered as Potency: inconclusive: 39.8 µM [inhibitor, partial curve, poor fit]

# (further entries)

SMILES,Potency,"activity change, negative = inhibition"
Cc1ccc(C(=O)COC(=O)c2ccc(O)cc2)s1,"inconclusive: 126 µM [inhibitor, single point]",–
O=C(Nc1cccc(O)c1)C(=O)Nc1ccccn1,inactive,–
O=C(CCCC(=O)N1CCN(C(=O)c2cc3ccccc3[nH]2)CC1)N1CCCCC1,inactive,–
CN1CC(=O)N(C2CCNCC2)Cc2c1ncnc2N1CCC(N2CCOCC2)CC1,–,inactive: -17.3% [at 6.33 µM]
O=C(CCc1ncc(-c2ccc(F)cc2F)o1)N1CCN(S(=O)(=O)c2cccc(F)c2)CC1,inactive,–
O=C(Nc1ccc([C@@H](O)[C@H]2COCC(=O)N2Cc2ccccc2F)cc1)c1ccc(F)cc1,inactive,–
Cc1nc(-c2c3n(c(=O)n(Cc4cccc(F)c4)c2=O)CCCCC3)no1,inactive,–
Cc1c(C(=O)c2ccc(Cl)cc2)oc2cc(NC(=O)c3ccncc3)ccc12,"inconclusive: 0.282 µM [inhibitor, full curve, poor fit]",–
CC(=O)N1CCN(S(=O)(=O)c2cccc(C(=O)OCc3ccc(C(C)(C)C)cc3)c2)CC1,inactive,–
COc1cc2c(cc1OC)-c1cc(N3CCCc4ccccc43)nc(=O)n1CC2,"inconclusive: 50.1 µM [inhibitor, partial curve, poor fit]",–
Cc1nc(NS(=O)(=O)c2ccccc2)sc1NC(=O)Nc1ccccc1,"inconclusive: 28.2 µM [inhibitor, partial curve]",–
O=c1c2c3c(sc2nnn1Cc1ccc(F)cc1)CCCC3,"inconclusive: 63.1 µM [inhibitor, partial curve, poor fit]",–
O=C(NCC(O)c1nc2ccccc2[nH]1)c1cc([N+](=O)[O-])ccc1F (stereo unspecified),"inconclusive: 44.7 µM [inhibitor, partial curve, poor fit]",–
O=C(Nc1cnn(Cc2ccc(Cl)cc2)c1)c1cccs1,inactive,–
O=c1oc2c(CN3CCCCC3)c(O)ccc2cc1-c1nc2ccccc2[nH]1,inactive,–
CCCNc1nc(-c2ccc(Br)cc2)cs1,"inconclusive: 56.2 µM [inhibitor, single point]",–
C=CCO/N=C(/C)c1c(O)c(CC)c(-c2ccccc2)n(-c2ccccc2)c1=O,"inconclusive: 10 µM [inhibitor, partial curve, poor fit]",–
COc1cccc(-c2nn(C)c3sc(C(=O)NCCc4cccc(C)c4)cc23)c1,inactive,–
N#Cc1c(Nc2ccc(F)cc2)sc(C(=O)c2ccccc2)c1N,"inconclusive: 50.1 µM [inhibitor, partial curve, poor fit]",–
Cc1ccc(C(NC(=O)CN2C(=O)NC3(CCCC3)C2=O)c2ccccc2)cc1 (stereo unspecified),inactive,–
CCNc1c(NC(=O)Nc2ccc(OC)cc2)c(=O)oc2ccccc12,"inconclusive: 56.2 µM [inhibitor, partial curve, poor fit]",–
CCS(=O)(=O)N1CC2(CN(Cc3ccc4c(c3)OCO4)[C@@H](CO)c3[nH]c4cc(OC)ccc4c32)C1,active: 14.1 µM,–

# Reprinted at random: two records from the list.
SMILES,Potency,"activity change, negative = inhibition"
CN1CC(=O)N(C2CCNCC2)Cc2c1ncnc2N1CCC(N2CCOCC2)CC1,–,inactive: -17.3% [at 6.33 µM]
O=C(NCC(O)c1nc2ccccc2[nH]1)c1cc([N+](=O)[O-])ccc1F (stereo unspecified),"inconclusive: 44.7 µM [inhibitor, partial curve, poor fit]",–
